# PubChem BioAssay AID1053208 | Peter MacCallum Cancer Centre – 2014
# Purpose: 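Find knock-downs that sensitise mouse osteosarcoma cells to doxorubicin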 (primary screen)
# System: mouse osteosarcoma cells, early-passage culture from an engineered mouse model of fibroblastic bone tumour
# Reagent: siRNA pool against mouse genes, 40 nM
# Time to read-out: about 120 h (48 h before drug, then 72 h with drug)
# Treatment: doxorubicin 100 nM for 72 h, roughly 30-40% inhibitory dose
# Measurement: 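Luminescent ATP signal taken as viability with or without 100 nM doxorubicin for 72 h; mean of two wells set against non-targeting siRNA and turned into robust z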
# Reading the numbers: viability z-score with doxorubicin and doxorubicin viability vs non-targeting: higher = more viable cells under doxorubicin; viability z-score without drug: higher = more viable cells with knock-down alone; z-score of drug to no-drug ratio: higher = less drug sensitisation by knock-down
# Active means: 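a pool counts as active when its viability z-score with doxorubicin is -2 or below and its z-score without drug lies between -2 and 2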
# This is a random part of about 17,000 reagents. Over the whole deposit, 788 (4.7%) got an active call. 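Calls rest on z-score classes alone; an extra cut-off of viability at most 70% of control was not applied to them.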 The numbers tell different reagents against one gene apart.
target gene,reagent,combined z-score class,viability z-score with doxorubicin,viability z-score without drug,z-score of drug to no-drug ratio,doxorubicin viability vs non-targeting,activity call
Noa1,1,no change with or without drug,0,0.51,-0.22,0.94,inactive
Thbs1,1,no change with or without drug,0,0.17,0,0.94,inactive
Fbxl4,1,no change with or without drug,1.46,1.01,0.9,1.07,inactive
Rcn2,1,no change with or without drug,0.67,-0.51,1.24,1,inactive
Sugp1,1,no change with or without drug,0.67,1.18,0,1,inactive
Rfxap,1,no change with or without drug,-1.12,0.51,-1.35,0.84,inactive
Dcaf15,1,no change with or without drug,0.45,0.17,0.45,0.98,inactive
Slc17a1,1,no change with or without drug,-0.9,-0.51,-0.56,0.86,inactive
Sash1,1,no change with or without drug,-0.45,0.51,-0.67,0.9,inactive
Or9s23,1,low cell count with doxorubicin only,-2.25,-1.52,-1.35,0.74,active
Cblc,1,no change with or without drug,-0.11,-0.17,0.11,0.93,inactive
Onecut1,1,no change with or without drug,1.35,0.51,1.12,1.06,inactive
Ccdc82,1,low cell count with doxorubicin only,-2.59,0.84,-3.04,0.71,active
Msrb3,1,no change with or without drug,0.34,-0.84,1.12,0.97,inactive
Cd3d,1,no change with or without drug,0,-0.17,0.22,0.94,inactive
Nr4a2,1,no change with or without drug,0.67,-0.34,1.12,1,inactive
Hnrnpf,1,no change with or without drug,0.22,0.67,-0.11,0.96,inactive

Only “combined z-score class” (5 entries from above):
Fbxl4	no change with or without drug
Rcn2	no change with or without drug
Sugp1	no change with or without drug
Rfxap	no change with or without drug
Dcaf15	no change with or without drug

Additional entries:
target gene,reagent,combined z-score class,viability z-score with doxorubicin,viability z-score without drug,z-score of drug to no-drug ratio,doxorubicin viability vs non-targeting,activity call
Wnt8b,1,no change with or without drug,0.67,0.34,0.56,1,inactive
Eps8l3,1,no change with or without drug,-1.8,-0.17,-1.69,0.78,inactive
Gja8,1,no change with or without drug,-0.9,-0.51,-0.56,0.86,inactive
Rps17,1,low cell count with and without drug,-5.06,-3.54,-3.6,0.49,inactive
Ano10,1,no change with or without drug,-0.45,0.67,-0.79,0.9,inactive
Ube2d2b,1,no change with or without drug,-1.12,1.35,-1.8,0.84,inactive
Pkd2l2,1,no change with or without drug,0.67,0,0.79,1,inactive
Tipin,1,low cell count with doxorubicin only,-4.27,-0.17,-4.27,0.56,active
Dph1,1,no change with or without drug,1.12,-0.51,1.69,1.04,inactive
Pum3,1,no change with or without drug,-0.9,1.01,-1.46,0.86,inactive
Hid1,1,no change with or without drug,0.67,0.51,0.45,1,inactive
Luc7l2,1,no change with or without drug,-1.8,-1.18,-1.01,0.78,inactive
Sdha,1,no change with or without drug,0,-0.34,0.34,0.94,inactive
Asb17,1,low cell count with doxorubicin only,-4.05,0.51,-4.38,0.58,active
Usp42,1,no change with or without drug,0.11,-0.84,0.9,0.95,inactive
Supt6,1,no change with or without drug,-0.34,0.51,-0.56,0.91,inactive
Orc2,1,no change with or without drug,0.9,0.84,0.45,1.02,inactive
Tmem50b,1,no change with or without drug,-1.57,-1.18,-0.79,0.8,inactive
Xdh,1,no change with or without drug,-1.69,-1.18,-0.9,0.79,inactive
Rab6a,1,no change with or without drug,-0.79,-0.17,-0.56,0.87,inactive
Prl2c3,1,no change with or without drug,0.45,-0.51,1.01,0.98,inactive
Ppm1f,1,no change with or without drug,-0.45,0.17,-0.45,0.9,inactive
Pla2g2f,1,low cell count with doxorubicin only,-2.7,0.17,-2.81,0.7,active
Zfp354c,1,no change with or without drug,1.24,-0.17,1.57,1.05,inactive
Hk3,1,no change with or without drug,-0.67,-1.01,0.11,0.88,inactive
Ccl2,1,no change with or without drug,-0.34,0.17,-0.34,0.91,inactive
Ccdc77,1,no change with or without drug,0.67,0.34,0.56,1,inactive
Myl12b,1,no change with or without drug,0.9,-0.51,1.46,1.02,inactive
Tnnt3,1,no change with or without drug,0,0.17,0,0.94,inactive
Tent4b,1,no change with or without drug,0.67,-0.51,1.24,1,inactive
Pramel39-ps,1,no change with or without drug,-0.22,-1.01,0.56,0.92,inactive
Tdh,1,no change with or without drug,-1.8,0.17,-1.91,0.78,inactive
Abraxas1,1,no change with or without drug,1.35,0.51,1.12,1.06,inactive
Abraxas1,2,low cell count with doxorubicin only,-2.02,-0.84,-1.57,0.76,active
